Assay results: article PMC7819943, “Rice protein-binding microarrays: a tool to detect cis-acting elements near promoter regions in rice”
The list shows a part of the results.

Chains of the proteins cited; added tags and fusions are not shown.
UniProt Q0JBA9, entry or part of it: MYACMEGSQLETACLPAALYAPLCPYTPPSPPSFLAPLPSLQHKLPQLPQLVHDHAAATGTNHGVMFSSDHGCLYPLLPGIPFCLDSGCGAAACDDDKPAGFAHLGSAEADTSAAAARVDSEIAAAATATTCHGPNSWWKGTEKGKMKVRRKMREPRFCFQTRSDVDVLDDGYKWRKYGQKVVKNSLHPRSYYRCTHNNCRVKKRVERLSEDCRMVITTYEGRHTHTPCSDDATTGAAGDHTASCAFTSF

Molecular target: OsWRKY34 (Oryza sativa, UniProt Q0JBA9 1-250)
Test: protein-binding microarray (RPBM); PBS, 2% BSA, 51.3 ng/ul salmon testes DNA, 50 uM zinc acetate, 200 nM TF, 25 C, 1 h; high values mean tight binding
Conditions: protein: recombinant; tags: N-terminal polyhistidine and DsRed monomer fusion (pET32a); label: CyDye5-dUTP incorporated in the synthesized complementary strand; 3' TTTTT single-stranded linker to array surface; dsDNA, one strand shown
Method in brief: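 Transcription factors, each fused N-terminally to a polyhistidine tag and DsRed, were expressed in E. coli BL21-CodonPlus and purified on Ni–NTA. A custom Agilent array was made double-stranded by primer extension with Cy5-dUTP and blocked with 2% BSA. It was incubated with 200 nM protein in PBS, 2% BSA, salmon testes DNA and 50 µM zinc acetate at 25 °C for 1 h, then washed. The binding signal is per-feature fluorescence intensity (arbitrary units) read on an Axon 4000B scanner.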

| Sequence | binding signal |
| --- | --- |
| GACTCTCTTGTATTGTCCATATTCATATATATATATGTTACGGAGTCACCTAGTGCAG | 8140 fluorescence intensity (a.u.) |
| GGACAAAGTTCACATGCTTACTATTCATTCTCCTACGTATCGGAGTCACCTAGTGCAG | 10100 fluorescence intensity (a.u.) |
| ACAAACTCTGCTTTCCGTGTCTAACATTTGACCGTCCGTCCGGAGTCACCTAGTGCAG | 8960 fluorescence intensity (a.u.) |
| TCCACGCTCGCCGACATCCCGGACCTCCACACCAAGTCCCCGGAGTCACCTAGTGCAG | 8020 fluorescence intensity (a.u.) |
| CCCTCATCGTGTCGATGCGTCGCTGCCTCGCTTTACCACTCGGAGTCACCTAGTGCAG | 8210 fluorescence intensity (a.u.) |
| TTTAATAAATTCATCCCGCGGTTTCCAGGCAAGTTATTAACGGAGTCACCTAGTGCAG | 8680 fluorescence intensity (a.u.) |
| AGTAAAAAAACAACCATACTGTCTCGTCCTGCTCGTCTAACGGAGTCACCTAGTGCAG | 9060 fluorescence intensity (a.u.) |
| ATACGGGATCCTAGGGTAAAACTTGTGTATGGGATGTGTCCGGAGTCACCTAGTGCAG | 8260 fluorescence intensity (a.u.) |
| GATTGTCATTTTCCATGATGTTTCTCGTGATCAAACGGACCGGAGTCACCTAGTGCAG | 11900 fluorescence intensity (a.u.) |
| CCTCTGCTACGATTCCGCGAATAATGGTCCGTGACATATCCGGAGTCACCTAGTGCAG | 8200 fluorescence intensity (a.u.) |
| AATTGTTGGTTATCAGTTTCATGTTTCAATGGACACTATTCGGAGTCACCTAGTGCAG | 8600 fluorescence intensity (a.u.) |
| GGGCTTGCGATCGTGTTGTGTTGGGTTGGGTCTTGGGTTTCGGAGTCACCTAGTGCAG | 29400 fluorescence intensity (a.u.) |
| ACTATCTCGGTCTCAACATATAGCTATTTATGTCATTTTTCGGAGTCACCTAGTGCAG | 12900 fluorescence intensity (a.u.) |
| CTTCTTGCTCACCGCCGCGGCGGCGGCGGCCGCCATCGTCCGGAGTCACCTAGTGCAG | 8880 fluorescence intensity (a.u.) |
| TGGAGTGGAGTTTCGATAGGTGTGGCGGGGAGGGAGGGAGCGGAGTCACCTAGTGCAG | 19800 fluorescence intensity (a.u.) |
| TTGAATAATTGTGTTGATGTAATATGCTCTTGTATTGGGGCGGAGTCACCTAGTGCAG | 8710 fluorescence intensity (a.u.) |
| GAGTATGGTAGATGGTGTCATGATCTCACGCCGTGTCTATCGGAGTCACCTAGTGCAG | 9970 fluorescence intensity (a.u.) |
| CCAAAGCACCAATCATCTAGCTACTTCTATGCTTTCTTCACGGAGTCACCTAGTGCAG | 11600 fluorescence intensity (a.u.) |
| ACTTATCCATCATCAGATCATTTATGCCATGAACTCAAGACGGAGTCACCTAGTGCAG | 9690 fluorescence intensity (a.u.) |
| CCTTTTTCTTTTCTTTGTTGTTGTGCAAATACTGTATAGTCGGAGTCACCTAGTGCAG | 10000 fluorescence intensity (a.u.) |
| TTTCTCTTTGCACCCTAGCCTCATGTTCTTCTTCTTCCTCCGGAGTCACCTAGTGCAG | 8680 fluorescence intensity (a.u.) |

Single values from the list:
Value for GAGTATGGTAGATGGTGTCATGATCTCACGCCGTGTCTATCGGAGTCACCTAGTGCAG under binding signal: 9970 fluorescence intensity (a.u.)
Value for CTTCTTGCTCACCGCCGCGGCGGCGGCGGCCGCCATCGTCCGGAGTCACCTAGTGCAG under binding signal: 8880 fluorescence intensity (a.u.)
Value for CCCTCATCGTGTCGATGCGTCGCTGCCTCGCTTTACCACTCGGAGTCACCTAGTGCAG under binding signal: 8210 fluorescence intensity (a.u.)

Continuation.

| Sequence | binding signal |
| --- | --- |
| CAGATGTCAGTGATGTTGTAGGGTCAGAGGGTAGGTTATTCGGAGTCACCTAGTGCAG | 9240 fluorescence intensity (a.u.) |
| TGCCGCTTGCGTAACTACTTAATTACCCGTATAGCCCATTCGGAGTCACCTAGTGCAG | 9080 fluorescence intensity (a.u.) |
| GCATTGTTTCTTCAGTCTACCTGTTGTCTCGTTGTATGCTCGGAGTCACCTAGTGCAG | 9480 fluorescence intensity (a.u.) |
| AACGGTTGTGACTACCCTCAGTCCGTCGTCTAAGTCAAATCGGAGTCACCTAGTGCAG | 8460 fluorescence intensity (a.u.) |
| GGCTTGAATAAAGGTGTGTTTGGTTGGGTGGATGGAGCATCGGAGTCACCTAGTGCAG | 8270 fluorescence intensity (a.u.) |
| GCACCGTATTTTTGTTTGAAATTATATTTTTCAGAGCTTTCGGAGTCACCTAGTGCAG | 10100 fluorescence intensity (a.u.) |
| TGTCGTTGCCGTTCCAAGTGCGCGGCGTGGTCTCCGATGCCGGAGTCACCTAGTGCAG | 8890 fluorescence intensity (a.u.) |
| TATATGCCTACTTTGTGTCCCTTACTTTGTCTGTGTAAACCGGAGTCACCTAGTGCAG | 9440 fluorescence intensity (a.u.) |
| GGGCATGTATTGTGGATTATTTTGTGAATGATTTGCAGATCGGAGTCACCTAGTGCAG | 10600 fluorescence intensity (a.u.) |
| TCCACCTTTTCATCAATATAGTCATGCATTAATACAGTCACGGAGTCACCTAGTGCAG | 8670 fluorescence intensity (a.u.) |
| ATACCAGTATTATTTTACCACGCCACTTTGTCATGGCAACCGGAGTCACCTAGTGCAG | 10400 fluorescence intensity (a.u.) |
| TAAACATATATTAAAAAGTCAACGGTGTCAAATATGTTGACGGAGTCACCTAGTGCAG | 11900 fluorescence intensity (a.u.) |
| CCATTAGTAAGTTCTCTCGTGGCCCAATACTCTCTTGATGCGGAGTCACCTAGTGCAG | 8840 fluorescence intensity (a.u.) |
| CTTTGTTTTTTACTCACTCCTTGAGTGGGCCGGCCTTAATCGGAGTCACCTAGTGCAG | 9690 fluorescence intensity (a.u.) |
| CCCGTCGCGTCACTGCCTCTCGCGACTGCATTTAAATTCACGGAGTCACCTAGTGCAG | 9040 fluorescence intensity (a.u.) |
| GTTGGTGGGTGCAGGGGTGCGACGCGTCGGTGCTGATCGACGGAGTCACCTAGTGCAG | 9160 fluorescence intensity (a.u.) |
| TTTGGCACACCTCTCTAACACCTACTCTTCCAGCTTTTAACGGAGTCACCTAGTGCAG | 8160 fluorescence intensity (a.u.) |
| GGTTGGCGCGGCCGACCCACCGTCCCACTCCCACATGCCACGGAGTCACCTAGTGCAG | 9220 fluorescence intensity (a.u.) |
| CCGTCGTCTTCGTTCCAGAGATCCTCGGCGCCGGGCAAGACGGAGTCACCTAGTGCAG | 8520 fluorescence intensity (a.u.) |
| ATAATGTGGTTGTTTCCGAAGGTGAAGGTTAGGCATATATCGGAGTCACCTAGTGCAG | 8840 fluorescence intensity (a.u.) |
| AAACAATTTAGTCAGGTTCTTGGATTCATTTCTCATTATTCGGAGTCACCTAGTGCAG | 10400 fluorescence intensity (a.u.) |
